Assay results taken from patent US8859730 (dated 2014).

Assays:
[1] = general procedure: Fmoc solid-phase peptide synthesis; Fmoc-Gly-NovaSyn TGT resin
[2] = general procedure: Fmoc solid-phase peptide synthesis; Fmoc-Ser(tBu)-NovaSyn TGT resin; settings: whole synthesis

Work on “Fmoc-Arg-Ala-Ser-Ile-Thr-Thr-Ala-Asp-Gly-O-salicylaldehyde ester” yielded a step yield ([1]; late stage modification step) of 54%.
For “H-Cys(S-t-Bu)-His-Cys(Acm)-Ser-Thr-Cys(Acm)-Tyr-Tyr-His-Lys-Ser-OH”, the isolated yield [2] was 70% yield.
Work on “H-Ser-Ala-Gln-Lys-Arg-His-Phe-Gly-Ala-SPh” yielded a step yield ([1]; coupling step) of 53%.
